Laboratory results: PubChem BioAssay AID504764 (Drosophila RNAi Screening Center, 2011)
Aim: 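Genes whose knock-down alters Notch-dependent transcription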 (primary screen). System: Drosophila Kc167 cells. Reagents: long dsRNA against Drosophila genes. Time to read-out: about 5 days (4 days dsRNA, then 24 h after transfection). Conditions: transfection of constitutively active membrane-tethered Notch lacking the extracellular domain, read 24 h later. Detection: 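Firefly luciferase from an E(spl)m3 reporter with active Notch, plus control-promoter and uninduced reporter wells for normalisation; unnormalised counts, duplicate wells a and b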. Scale: induced reporter light, run 1, well a and induced reporter light, run 1, well b: higher = more light from the Notch target reporter with active Notch; control promoter light, run 1, well a and control promoter light, run 1, well b: higher = more light from the viral control promoter (cell number, transfection, viability); uninduced reporter light, run 1, well a: higher = more light from the Notch target reporter without active Notch. Hit rule: 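Hit if the duplicate-averaged log2 ratio of induced to control-promoter light gives a plate-wise z beyond ±2, or induced to uninduced beyond ±1.8; weak-control or discordant-duplicate wells dropped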. Meaning of the calls: active = modifier hit (raised or lowered Notch signal); inactive = not a hit.
The deposit covers about 22,000 reagents; this is a random part of those with a known target gene and a result. Of all reagents, 403 (1.9%) were called active. 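Unnormalised raw counts per well; ratio z-scores behind the hit calls and whether each hit raises or lowers signal are not deposited.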 A number with no mark means an inactive call. The numbers tell different reagents against one gene apart. Names joined by + are all predicted targets of the reagent. Not given: the amount of reagent.

| Target gene | reagent no. | induced reporter light, run 1, well a | induced reporter light, run 1, well b | control promoter light, run 1, well a | control promoter light, run 1, well b | uninduced reporter light, run 1, well a |
| --- | --- | --- | --- | --- | --- | --- |
| CG32374 | 1 | 1.92e5 | 1.46e5 | 1.68e5 | 1.26e5 | 6245 |
| Ir40a | 1 | 39690 | 52905 | 40570 | 52965 | 3140 |
| Ir40a | 2 | 58825 | 54565 | 36580 | 49320 | 2490 |
| GCS2alpha | 1 | 1.07e5 | 96355 | 91275 | 1.27e5 | 11242 |
| CG4962 | 1 | 1.56e5 | 2.20e5 | 2.36e5 | 2.07e5 | 10855 |
| CG13998 | 1 | 2.12e5 | 1.92e5 | 3.02e5 | 2.93e5 | 15715 |
| CG13443 | 1 | 1.06e5 | 1.74e5 | 1.59e5 | 1.80e5 | 8580 |
| PMCA | 1 | 69450 | 83540 | 1.00e5 | 98455 | 5920 |
| PMCA | 2 | 60085 (active) | 52040 | 58490 | 54935 | 4982 |
| PMCA | 3 | 29610 | 31595 | 44235 | 43850 | 2720 |
| CG8032 | 1 | 65790 | 76220 | 54070 | 51365 | 5175 |
| Su(P) | 1 | 1.38e5 | 1.59e5 | 1.71e5 | 1.80e5 | 6860 |
| fzy | 1 | 63710 | 65425 | 82070 | 83465 | 7560 |
| ND-42 | 1 | 1.05e5 | 84710 | 1.38e5 | 1.33e5 | 8432 |
| CG4766 | 1 | 1.59e5 | 1.60e5 | 2.79e5 | 2.61e5 | 12615 |
| COX6B | 1 | 99570 | 1.18e5 | 90090 | 71900 | 8205 |
| THADA | 1 | 1.05e5 | 1.22e5 | 1.05e5 | 42785 | 7430 |
| Nmnat | 1 | 1.44e5 | 1.19e5 | 2.25e5 | 2.05e5 | 13855 |
| Septin5 | 1 | 1.39e5 | 1.07e5 | 1.53e5 | 1.30e5 | 10188 |
| Yeti | 1 | 29630 | 23525 | 37555 | 43290 | 2555 |
| CG14448 | 1 | 1.17e5 | 1.04e5 | 1.29e5 | 1.24e5 | 7582 |
| CG13689 | 1 | 1.02e5 | 1.07e5 | 1.11e5 | 50375 | 8070 |
| CG32110 | 1 | 2.15e5 | 1.80e5 | 2.79e5 | 2.59e5 | 20915 |
| CG33758 | 1 | 49590 | 54925 | 60155 | 71700 | 3115 |
| ssp7 | 1 | 1.19e5 | 88070 | 1.31e5 | 1.22e5 | 6965 |
| CG8726 | 1 | 1.68e5 | 1.46e5 | 1.57e5 | 1.34e5 | 15395 |
| PGRP-LB | 1 | 1.36e5 | 1.16e5 | 86585 | 79680 | 9515 |

Next part, starting with the last 2 of the part before.
| Target gene | reagent no. | induced reporter light, run 1, well a | induced reporter light, run 1, well b | control promoter light, run 1, well a | control promoter light, run 1, well b | uninduced reporter light, run 1, well a |
| --- | --- | --- | --- | --- | --- | --- |
| CG8726 | 1 | 1.68e5 | 1.46e5 | 1.57e5 | 1.34e5 | 15395 |
| PGRP-LB | 1 | 1.36e5 | 1.16e5 | 86585 | 79680 | 9515 |
| Septin4 | 1 | 1.03e5 | 1.14e5 | 95515 | 68195 | 8335 |
| CG6695 | 1 | 1.68e5 | 1.67e5 | 1.87e5 | 1.94e5 | 13835 |
| Cyp310a1 | 1 | 3.11e5 | 2.42e5 | 1.98e5 | 2.10e5 | 19510 |
| CG15185 | 1 | 74075 | 91615 | 83975 | 64640 | 7620 |
| CG14075 | 1 | 92145 | 54245 | 61010 | 68905 | 4935 |
| GstE9 | 1 | 1.24e5 | 95235 | 1.36e5 | 1.53e5 | 9485 |
| Ostgamma | 1 | 87710 | 1.07e5 | 89960 | 91650 | 5430 |
| Cpr47Ed | 1 | 1.17e5 | 1.15e5 | 1.41e5 | 1.32e5 | 10282 |
| eIF6 | 1 | 2.08e5 | 1.78e5 | 1.82e5 | 1.58e5 | 16420 |
| CR12628 + Mgstl | 1 | 49435 | 53025 | 41865 | 30340 | 2850 |
| CR12628 + Mgstl | 2 | 1.26e5 | 1.44e5 | 1.46e5 | 1.54e5 | 13475 |
| Cdk7 | 1 | 1.17e5 | 1.24e5 | 3.34e5 | 2.59e5 | 10485 |
| Tsp3A | 1 | 1.45e5 | 1.32e5 | 2.08e5 | 2.22e5 | 9035 |
| CG10864 | 1 | 2.04e5 | 1.58e5 | 2.19e5 | 2.20e5 | 13185 |
| RhoGAP92B | 1 | 2.20e5 | 2.00e5 | 2.16e5 | 2.18e5 | 17760 |
| RhoGAP92B | 2 | 1.81e5 | 1.90e5 | 2.23e5 | 2.06e5 | 14900 |
| mab-21 | 1 | 1.52e5 | 1.86e5 | 3.70e5 | 3.33e5 | 13875 |
| CG7766 | 1 | 1.34e5 | 1.29e5 | 1.42e5 | 1.23e5 | 9632 |
| Cht10 | 1 | 47330 | 65285 | 58255 | 41370 | 3365 |
| Cht10 | 2 | 2.08e5 | 2.21e5 | 2.03e5 | 1.82e5 | 14855 |
| Cht10 | 3 | 52395 | 44790 | 46315 | 32860 | 3130 |
| CG31343 | 1 | 1.67e5 | 2.39e5 | 2.35e5 | 2.61e5 | 14270 |
| rump | 1 | 1.01e5 | 1.01e5 | 76975 | 73270 | 8325 |
